# Experimental data from PubChem BioAssay AID587 (National Center for Advancing Translational Sciences (NCATS), 2007).
# Screen size: about 59,000 compounds; about 35 (0.06%) were called active. The shares of active, inactive and inconclusive entries below differ from those in the screen. Cut-off read from the data, not from the text of the source: active = max dye-equivalent concentration above about 10 nM; inconclusive = between about 1.1 nM and that limit; inactive = weaker than that.
# Experiment: qHTS Assay for Spectroscopic Profiling in Texas Red Spectral Region
# Conditions: Compound fluorescence, Texas Red channel, 547/618 nm; stronger effect = higher value
# Procedure, shortened: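 Compound titrations in 100 mM Tris pH 8.0 were incubated 15 min at room temperature and read at 547 nm excitation / 618 nm emission. Texas Red six-point standard curve on each plate converted fluorescence to dye-equivalent concentration.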
row,Compound,max dye-equivalent concentration
1,CCOC(=O)N1CCN(C(=O)c2ccc3nc(N4CCC(C)CC4)sc3c2)CC1,inconclusive: 1.3 nM
2,Cc1ccc(S(=O)(=O)Nc2nc3ccc(S(=O)(=O)N4CCCC4)cc3s2)cc1,inconclusive: 1.5 nM
3,COc1ccc(-c2c3c(=O)n(C)c(=O)n(C)c3c3nnc4ccccc4n23)cc1,inactive
4,COCCCn1cnc2c(c1=O)c1nc3ccccc3nc1n2-c1ccccc1,inconclusive: 1.2 nM
5,c1coc(CNc2c3c(nc4ncnn24)CCC3)c1,inactive
6,COc1ccccc1C(=O)Nc1ccccc1C(=O)N1CCCC1,inconclusive: 1.2 nM
7,COC(=O)Cc1[nH]nc2c1C(C1C=CCCC1)C(C#N)=C(N)O2 (stereo not drawn),inconclusive: 1.2 nM
8,OCc1nc2ccccc2n1C/C=C/c1ccccc1,inconclusive: 1.3 nM
9,NC(=O)N/N=C\c1ccc([N+](=O)[O-])o1,inconclusive: 1.3 nM
10,CSc1nnc(Cc2cc(=O)[nH]c(=O)[nH]2)n1-c1cc(C)ccc1C,inconclusive: 1.3 nM
11,CCOC(=O)/N=C(/NC(=O)Nc1ccc(C(=O)OCC)cc1)OC,inconclusive: 1.1 nM
12,Cc1cc(Cc2cc(C)c(N)cc2N)c(N)cc1N,inactive
13,CCC(=O)Nc1ccc(NC(=O)c2c(C)nc3ccccn23)cc1,inconclusive: 2 nM
14,CN1CCN(C(=O)c2ccc(-c3nn(C)c(=O)c4ccccc34)cc2)CC1,inconclusive: 2.6 nM
15,CCOc1ccc(OCC)c(C2C(C#N)=C(N)N(c3cccnc3)C3=C2C(=O)CC(C)(C)C3)c1 (stereo not drawn),inconclusive: 3.4 nM
16,C=CCn1cc(Cl)c(=O)n(CC=C)c1=O,inconclusive: 1.2 nM
17,COc1cc(C(Nc2ccc3c(c2)OCO3)C(=O)NC2CCCCC2)cc(OC)c1OC (stereo not drawn),inconclusive: 1.5 nM
18,O=C(NCc1cccs1)C(Cc1ccccc1)NS(=O)(=O)c1cccs1 (stereo not drawn),inconclusive: 1.5 nM
19,S=c1[nH]nc(Cc2ccccc2)n1-c1ccccc1,inconclusive: 1.3 nM
20,CCN(CC)c1ccc2cc(-c3nnc(-c4ccncc4)o3)c(=O)oc2c1,inactive
21,S[C@@H]1CCCN(Cc2ccccc2)C1,inactive
22,Cc1ccc(SCc2cc(=O)[nH]c(N3CCOCC3)n2)cc1,inconclusive: 1.2 nM

row,Compound,max dye-equivalent concentration
1,CCCN1Cc2cccc(C(=O)Nc3ccc4c(c3)OCO4)c2C1=O,inconclusive: 1.1 nM
2,CCOC(=O)C1=C(C)NC(C)=C(C(=O)OC)[C@@H]1c1cccc(Cl)c1Cl,inactive
3,CCOC(=O)c1c(NC(=O)c2nn(CC)cc2Br)sc2c1CCCCC2,inconclusive: 1.2 nM
4,CN(Cc1ccco1)c1cc(-c2cccc(NS(C)(=O)=O)c2)ncn1,inactive
5,COC(=O)c1ccccc1NS(=O)(=O)c1ccc(F)cc1,inconclusive: 1.3 nM
6,Clc1ccc(CN2CCCN(Cc3ccc(Cl)cc3)C2c2cc3ccccc3c3ccccc23)cc1,inactive
7,O=C(O)c1cc2c(s1)-c1ccccc1OC2,inconclusive: 1.8 nM
8,O=C(Cn1nnc(-c2ccccc2)n1)NCc1ccccc1,inactive
9,C/C(N)=C(\C#N)C(=O)NCc1ccccn1,inconclusive: 1.3 nM
10,COc1ccc(OCC(=O)Nc2cccc(NC(=O)COc3ccc(OC)cc3)n2)cc1,inconclusive: 1.2 nM
11,COC(=O)[C@H](C)NC(=O)Nc1ccc(C)c(C)c1,inconclusive: 2.9 nM
12,Cn1c2ccccc2c2cc(C(=O)OCC(=O)N3CC(=O)Nc4ccccc43)sc21,inconclusive: 1.8 nM
13,Cc1cccc(C)c1N1C(=O)CC(N(O)c2ccccc2)C1=O (stereo not drawn),inconclusive: 1.4 nM
14,COC(=O)c1cc(OC)c(OC)cc1NC(=O)c1c(C)noc1C,inconclusive: 1.2 nM
15,COc1ccc(C2C3=C(CC(C)(C)CC3=O)Oc3ncn4nc(-c5cccnc5)nc4c32)cc1OC (stereo not drawn),inconclusive: 1.1 nM
16,Nc1ncnc2c1nc(-c1ccccc1)n2[C@H]1O[C@@H](CO)[C@@H](O)[C@H]1O,inconclusive: 1.8 nM
18,Nc1nc(N)nc(CCCCc2nc(N)nc(N)n2)n1,inconclusive: 1.9 nM
19,Cc1ccccc1CN1C(=O)CSc2ccc(C(=O)N3CCOCC3)cc21,inconclusive: 1.5 nM
20,O=C(COC(=O)C1CCN(S(=O)(=O)c2cccs2)CC1)c1cc2ccccc2o1,inconclusive: 1.6 nM
21,O=C(CCc1nc2ccccc2c(=O)[nH]1)N1CCN(C/C=C/c2ccccc2)CC1,inconclusive: 1.3 nM
22,Cc1nc2ccc(Nc3nc4cc(S(=O)(=O)N5CCOCC5)ccc4o3)cc2s1,inconclusive: 1.3 nM

row,Compound,max dye-equivalent concentration
1,CCOc1ccc2[nH]c(=O)c(CN(Cc3nnnn3Cc3ccccc3)CC3CCCO3)cc2c1 (stereo not drawn),inconclusive: 1.2 nM
2,C=CCOc1ccccc1/C=N/O,inconclusive: 1.2 nM
3,CC(C)CCN1CC(C(=O)NCc2ccccc2)CC1=O (stereo not drawn),inconclusive: 1.8 nM
4,Cc1cc(C(C)(C)C)c(OCCCN2CCOCC2)c(C(C)(C)C)c1,inconclusive: 1.6 nM
5,Cc1ccc(S(=O)(=O)NC(CC(=O)NCc2ccco2)c2ccco2)cc1 (stereo not drawn),inconclusive: 1.1 nM
6,CC(=O)OCc1cc(=O)n(C)c(=O)n1C,inconclusive: 1.3 nM
7,CCNC(=O)C1CC(=O)N(Cc2ccc(F)cc2)C(=Nc2ccc(OC)cc2)S1 (stereo not drawn),inconclusive: 1.2 nM
8,COC(=O)CCC(=O)Nc1ccc(S(=O)(=O)N2CCCCCC2)cc1,inconclusive: 1.5 nM
9,C=C(C)COc1ccc2c(C)c(CC(=O)OC)c(=O)oc2c1C,inconclusive: 1.2 nM
10,N#Cc1cnn(-c2ccccc2)c1N,inconclusive: 1.4 nM
11,CCN(CC)C(=O)c1ccc(C)c(Br)c1,inconclusive: 1.8 nM
12,CC1=Nn2c(nc(-c3ccccc3)c2-c2ccccc2)N(CC(N)=O)C(=O)C1,inconclusive: 1.2 nM
13,Cc1csc(SCC(=O)O)n1,inactive
14,COCC(=O)N1CCC2(CC1)CN(C(=O)Nc1cccc(C#N)c1)C2,inactive
15,COC(=O)CSc1nnc2n1C(C)(C)Cc1ccccc1-2,inconclusive: 1.6 nM
16,CCOC(=O)c1cc(C(=O)OCC)cc(-n2c(C)cc(C(=O)CN3CCOCC3)c2C)c1,inconclusive: 1.3 nM
17,CCOC(=O)C1CCCN(C(=O)CCn2nc(-c3ccccc3)ccc2=O)C1 (stereo not drawn),inconclusive: 2 nM
18,CC(C)(C)c1csc(NC2=NS(=O)(=O)c3ccccc32)n1,inactive
19,N#Cc1cccc(-c2cc(-n3ccnc3)ncn2)c1,inactive
20,Cc1cc(-c2cc(C)c(O)c(C(C)(C)C)c2)cc(C(C)(C)C)c1O,inconclusive: 1.1 nM
21,O=C(NCCc1cccc(F)c1)[C@@H]1CSC2c3ccccc3C(=O)N21 (stereo partly drawn),inconclusive: 1.1 nM
22,CCOC(=O)c1ccc(COC(=O)c2cc(=O)[nH]c3ccccc23)o1,inconclusive: 1.4 nM

# Quoted from the results shown for reference:
row,Compound,max dye-equivalent concentration
9,C=C(C)COc1ccc2c(C)c(CC(=O)OC)c(=O)oc2c1C,inconclusive: 1.2 nM
10,N#Cc1cnn(-c2ccccc2)c1N,inconclusive: 1.4 nM
11,CCN(CC)C(=O)c1ccc(C)c(Br)c1,inconclusive: 1.8 nM
12,CC1=Nn2c(nc(-c3ccccc3)c2-c2ccccc2)N(CC(N)=O)C(=O)C1,inconclusive: 1.2 nM

# (cont.)

row,Compound,max dye-equivalent concentration
1,Cn1c(SCc2cccc3ccccc23)nnc1-c1ccco1,inconclusive: 1.4 nM
2,COCCNc1ncnc2ccc(-c3ccc(C(=O)N(C)C)cc3)cc12,inactive
3,c1ccc(Cn2nnnc2C(c2cccnc2)N2CCN(c3ccccc3)CC2)cc1 (stereo not drawn),inconclusive: 1.1 nM
4,CCn1c(SCC(=O)Nc2nc(C)c(C)s2)nnc1-c1cccnc1,inconclusive: 1.8 nM
5,Cc1cccc(NC(=O)C23CCC(C)(/C(=N/O)C2)C3(C)C)c1 (stereo not drawn),inconclusive: 1.4 nM
6,CC(=O)Nc1ccccc1OCC(=O)c1cc(C)n(Cc2cccs2)c1C,inconclusive: 2.1 nM
7,COC(=O)c1c(NC(=O)c2ccoc2C)sc2c1CCC2,inconclusive: 1.1 nM
8,CC(=O)c1cccc(NC(=O)NCc2ccccn2)c1,inconclusive: 1.9 nM
9,N#Cc1nc(-c2ccccc2)oc1N1CCCCC1,inconclusive: 1.5 nM
10,O=C(c1cccs1)N(Cc1ccco1)C1CCS(=O)(=O)C1 (stereo not drawn),inconclusive: 1.4 nM
11,CC1=C(C(=O)NCc2ccccc2)C(c2cccs2)n2ncnc2N1 (stereo not drawn),inconclusive: 1.3 nM
12,Cc1nc2ccccc2c(=O)n1NCc1cc(Br)cs1,inconclusive: 1.2 nM
13,CC(=O)N1C(C(=O)O)CSC1c1cccc(C)c1 (stereo not drawn),inconclusive: 1.2 nM
14,CC(C)(C)OC(=O)NCCc1nnc(SCC(=O)c2ccc(Cl)cc2)o1,inconclusive: 1.8 nM
15,CC1Cc2ccccc2N1C(=O)c1ccnc(C(C)(C)C)c1 (stereo not drawn),inconclusive: 1.7 nM
16,CC(C)C12CN3CC(C(C)C)(CN(C1)C3c1ccc3c(c1)OCO3)C2=O (stereo not drawn),inconclusive: 1.3 nM
17,CC(C)n1c(SCC(=O)N2c3ccccc3Sc3ccccc32)nc2c1c(=O)n(C)c(=O)n2C,inconclusive: 1.4 nM
18,O=C(CC1C(=O)NCCN1C(=O)Nc1ccccc1)Nc1ccc2c(c1)OCO2 (stereo not drawn),inconclusive: 1.4 nM
19,CS(=O)(=O)Nc1cccc(-c2cncnc2Nc2ccccc2)c1,inactive
20,N#Cc1c(C(F)(F)F)cc(-c2ccccc2)nc1SCc1nc(N)nc(N2CCOCC2)n1,inactive
21,Cc1ccc(C)c(N2CCN(C(=O)COc3cc(=O)n(C)c4ccccc34)CC2)c1,inconclusive: 1.1 nM
22,O=C(c1ccc(F)cc1)N1CCC(O)(c2cccnc2)CC1,inconclusive: 2.4 nM
